Measured values taken from PMC6941357, “An in vitro toolbox to accelerate anti-malarial drug discovery and development” (Malaria Journal, 2020).

Protein sequences, listed by entry. Tags and fused reporters are not part of them. Residues count along the entry.
UniProt P02769, 25-607: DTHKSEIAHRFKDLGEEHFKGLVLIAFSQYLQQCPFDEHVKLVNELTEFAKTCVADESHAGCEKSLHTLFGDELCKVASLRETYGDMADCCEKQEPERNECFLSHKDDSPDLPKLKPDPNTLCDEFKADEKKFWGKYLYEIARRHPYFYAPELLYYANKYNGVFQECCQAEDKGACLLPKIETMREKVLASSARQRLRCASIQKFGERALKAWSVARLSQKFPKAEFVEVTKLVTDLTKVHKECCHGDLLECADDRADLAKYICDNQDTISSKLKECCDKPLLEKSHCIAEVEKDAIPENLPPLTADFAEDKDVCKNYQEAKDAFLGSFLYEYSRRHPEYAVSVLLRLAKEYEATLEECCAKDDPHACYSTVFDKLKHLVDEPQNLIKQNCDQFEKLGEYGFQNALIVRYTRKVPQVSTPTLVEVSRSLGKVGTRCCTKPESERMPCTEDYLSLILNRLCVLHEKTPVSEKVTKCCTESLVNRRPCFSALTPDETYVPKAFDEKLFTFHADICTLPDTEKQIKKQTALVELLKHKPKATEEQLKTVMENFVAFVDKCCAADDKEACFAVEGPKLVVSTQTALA

Experiments:
[1] = Binding in DMEM with 10% FCS via ultracentrifugation; assay type: in vitro ADME, calf; settings: bovine, pH 7.4
Description: Dulbecco’s Modified Eagle’s Medium (DMEM) containing GlutaMAX-I was purchased from Invitrogen (Thermo Fisher Scientific) and stored at 4 °C. Medium was prepared by adding heat inactivated foetal calf serum (FCS, final 10% v/v), penicillin (final 100 U/mL), streptomycin (final 100 µg/mL) D-glucose (final 4.0 mg/mL) and sodium pyruvate (final 0.1 mg/mL).
(§1) An ultracentrifugation method adapted from a previous publication was initially used to assess plasma protein binding and binding in the other media. […] Additional ultracentrifuge tubes containing spiked matrix were maintained at 37 °C, 5% or 10% CO2 or normal atmosphere conditions, with aliquots being taken within 0.5 h of the start and at the end of ultracentrifugation to serve as controls for the assessment of stability and to obtain a measure of the total concentration (Ctotal). […]
(§2) Total matrix and protein free samples were analysed using a matrix matching approach whereby each sample was mixed in a 1:1 ratio with the opposite blank medium (i.e. blank total matrix or blank protein free buffer). […] The standard deviation for fu was calculated using the propagation of errors approach as described previously. The potential for compound degradation was assessed by comparing the average value for Ctotal at the start and end of the experiment.

[2] = system: human plasma; settings: methods UF, ED, EP or not described per compound, ref [6]–[22] of Additional file 1; cited from earlier work
[3] = target: T1, Albumax medium (lipid rich bovine serum albumin) (Bos taurus, UniProt P02769); assay: Binding in Albumax medium via ultracentrifugation; assay type: in vitro ADME; settings: pH 7.4
T1 construct: purchased Gibco, Thermo Fisher Scientific
Description: An ultracentrifugation method adapted from a previous publication was initially used to assess plasma protein binding and binding in the other media. […] Additional ultracentrifuge tubes containing spiked matrix were maintained at 37 °C, 5% or 10% CO2 or normal atmosphere conditions, with aliquots being taken within 0.5 h of the start and at the end of ultracentrifugation to serve as controls for the assessment of stability and to obtain a measure of the total concentration (Ctotal). Following ultracentrifugation, the pH was checked and an aliquot of protein-free supernate was taken from each ultracentrifuge tube for determination of the unbound concentration (Cunbound).
as §2, with “buffer). For example, plasma samples were mixed with blank pH 7.4 buffer whereas plasma supernatant samples were mixed with blank plasma.” for “buffer).”

[4] = Plasma protein binding via ultracentrifugation (UC); assay type: in vitro ADME; settings: human, neat pooled plasma, pH 7.4
Description: Pooled human plasma (n = 3–4 donors) was obtained by centrifugation of blood (collected by the Australian Red Cross Blood Service, Melbourne, Australia or the Volunteer Blood Donor Registry, Clinical Translation Centre, Walter & Eliza Hall Institute of Medical Research, Parkville, Australia), or sourcing pooled plasma directly from commercial sources (Innovative Research Inc, MI) and stored frozen at − 80 °C.
as §1, §2

Cc1cc(NS(=O)(=O)c2ccc(N)cc2)no1 [Sulfamethoxazole]
fraction unbound at […], 1000 ng/mL [1]: 0.87 ± 0.058
Literature fu [2]: 0.27
fraction unbound at […], 500 ng/mL [3]: 0.67 ± 0.12
fraction unbound at […] [4]: 0.32 ± 0.024
